PubChem BioAssay AID504793 | Drosophila RNAi Screening Center – 2011
The screen tested about 23,000 reagents; shown is an unselected part of those that have a named target and a result. Over the whole deposit, 62 (0.27%) got an active call. 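Calls come from follow-up tests whose scores are not deposited, so confirmed genes may have low counts here; counts are not normalised per plate.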 The raw values are shown without normalisation. The numbers tell different reagents against one gene apart. A plus sign joins genes that one reagent is predicted to hit.

- Test: 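Whole-genome screen for parts of the DNA damage checkpoint at G2/M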 (primary screen)
- System: Drosophila S2R+ cells
- Knock-down reagent: long dsRNA against Drosophila genes, about 0.25 µg dsRNA per well
- Timing: 4 days of dsRNA, then 4 hours of drug before read-out
- Conditions: doxorubicin 0.5 µM for 4 hours to cause double-strand breaks, in cells also given a low, harmless dose of dsRNA against nbs to sensitise the assay
- Read-out: 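Per-well count of mitotic cells stained for phospho-histone H3 after doxorubicin exposure, used as mitotic index; counts are raw and not normalised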
- Reading the numbers: mitotic cells: higher = more cells in mitosis, weaker G2 arrest
- Rule for the call: 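Genes are called active only when high mitotic counts were reproduced with independent dsRNAs and mitosis was checked for delay without damage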
- Meaning of the calls: active = confirmed in follow-up tests; inactive = not confirmed

{"gene": "CG32452", "reagent no.": 1, "mitotic cells, replicate 1": 4, "Call": "inactive"}
{"gene": "CG32452", "reagent no.": 2, "mitotic cells, replicate 1": 5, "Call": "inactive"}
{"gene": "CG32452", "reagent no.": 3, "mitotic cells, replicate 1": 5, "Call": "inactive"}
{"gene": "CG15249", "reagent no.": 1, "mitotic cells, replicate 1": 4, "Call": "inactive"}
{"gene": "fig", "reagent no.": 1, "mitotic cells, replicate 1": 8, "Call": "inactive"}
{"gene": "fig", "reagent no.": 2, "mitotic cells, replicate 1": 9, "Call": "inactive"}
{"gene": "Ir67a", "reagent no.": 1, "mitotic cells, replicate 1": 6, "Call": "inactive"}
{"gene": "COX6AL2 + Ir75d", "reagent no.": 1, "mitotic cells, replicate 1": 4, "Call": "inactive"}
{"gene": "CG1265", "reagent no.": 1, "mitotic cells, replicate 1": 7, "Call": "inactive"}
{"gene": "CG17029", "reagent no.": 1, "mitotic cells, replicate 1": 4, "Call": "inactive"}
{"gene": "CG17029", "reagent no.": 2, "mitotic cells, replicate 1": 3, "Call": "inactive"}
{"gene": "Hex-A", "reagent no.": 1, "mitotic cells, replicate 1": 8, "Call": "inactive"}
{"gene": "Hex-A", "reagent no.": 2, "mitotic cells, replicate 1": 2, "Call": "inactive"}
{"gene": "Pyroxd1", "reagent no.": 1, "mitotic cells, replicate 1": 2, "Call": "inactive"}

Copied from above (2 entries):
{"gene": "CG15249", "reagent no.": 1, "mitotic cells, replicate 1": 4, "Call": "inactive"}
{"gene": "fig", "reagent no.": 1, "mitotic cells, replicate 1": 8, "Call": "inactive"}
